Data from the supplement of paper PMC6411743.
± gives the standard deviation of the averaged measurements. The entries are a selection whose mix differs from that of the whole data set.

Assays:
Assay in all cases: NP40-soluble protein abundance relative to vehicle (solubility fold change) (ratio); higher = more soluble protein in presence of ATP
[1] = target: T1, UAP1L1 (UniProt Q3KQV9)
T1 sequence (whole entry): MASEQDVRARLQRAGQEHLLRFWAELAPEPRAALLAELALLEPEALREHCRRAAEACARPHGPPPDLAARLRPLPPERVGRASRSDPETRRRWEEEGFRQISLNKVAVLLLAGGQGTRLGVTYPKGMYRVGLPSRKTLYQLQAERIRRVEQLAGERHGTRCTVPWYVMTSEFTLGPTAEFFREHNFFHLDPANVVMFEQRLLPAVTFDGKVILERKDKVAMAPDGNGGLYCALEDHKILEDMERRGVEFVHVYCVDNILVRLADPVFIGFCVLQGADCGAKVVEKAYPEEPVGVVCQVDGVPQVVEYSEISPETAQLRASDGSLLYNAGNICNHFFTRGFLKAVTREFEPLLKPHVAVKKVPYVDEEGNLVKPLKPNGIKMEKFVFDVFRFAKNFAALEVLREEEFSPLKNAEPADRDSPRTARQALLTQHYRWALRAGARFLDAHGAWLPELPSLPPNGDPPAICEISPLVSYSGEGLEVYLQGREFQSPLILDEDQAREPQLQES
Summary of the method: (§1)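 Data come from three independent experiments in which Dounce-homogenised Jurkat crude lysate was treated at eight concentrations from 0.1 to 10 mM. Treatment ran 10 min at room temperature and then 3 min at 37 °C, after which 0.8% NP40 and benzonase were added for 60 min at 4 °C before ultracentrifugation. The supernatant underwent TMT labelling and LC-MS/MS, and vsn-normalised intensities were expressed as fold change against the detergent-processed vehicle in each replicate.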

[2] = target: T2, UniProt Q14444
T2 sequence (whole entry): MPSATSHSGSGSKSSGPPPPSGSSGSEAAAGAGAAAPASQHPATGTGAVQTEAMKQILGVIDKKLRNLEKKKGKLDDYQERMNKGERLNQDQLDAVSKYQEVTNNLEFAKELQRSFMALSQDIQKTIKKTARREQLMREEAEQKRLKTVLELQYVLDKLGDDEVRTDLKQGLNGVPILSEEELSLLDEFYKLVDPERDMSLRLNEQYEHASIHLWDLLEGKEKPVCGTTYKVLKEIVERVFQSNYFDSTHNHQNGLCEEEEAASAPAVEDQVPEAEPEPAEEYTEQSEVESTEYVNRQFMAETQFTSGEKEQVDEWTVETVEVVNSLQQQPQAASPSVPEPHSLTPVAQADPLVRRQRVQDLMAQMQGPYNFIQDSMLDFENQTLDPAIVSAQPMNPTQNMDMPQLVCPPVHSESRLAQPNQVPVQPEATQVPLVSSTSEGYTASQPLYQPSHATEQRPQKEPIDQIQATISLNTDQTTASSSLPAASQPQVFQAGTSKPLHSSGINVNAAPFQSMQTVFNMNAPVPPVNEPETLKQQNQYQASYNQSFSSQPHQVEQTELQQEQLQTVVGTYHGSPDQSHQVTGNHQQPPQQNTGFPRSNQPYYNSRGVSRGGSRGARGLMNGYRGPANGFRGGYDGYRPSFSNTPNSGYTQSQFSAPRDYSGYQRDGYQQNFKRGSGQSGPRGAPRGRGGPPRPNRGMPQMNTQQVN
Summary of the method: as §1

[3] = target: T3, UniProt Q14697 and related entries
T3 sequence (whole entry): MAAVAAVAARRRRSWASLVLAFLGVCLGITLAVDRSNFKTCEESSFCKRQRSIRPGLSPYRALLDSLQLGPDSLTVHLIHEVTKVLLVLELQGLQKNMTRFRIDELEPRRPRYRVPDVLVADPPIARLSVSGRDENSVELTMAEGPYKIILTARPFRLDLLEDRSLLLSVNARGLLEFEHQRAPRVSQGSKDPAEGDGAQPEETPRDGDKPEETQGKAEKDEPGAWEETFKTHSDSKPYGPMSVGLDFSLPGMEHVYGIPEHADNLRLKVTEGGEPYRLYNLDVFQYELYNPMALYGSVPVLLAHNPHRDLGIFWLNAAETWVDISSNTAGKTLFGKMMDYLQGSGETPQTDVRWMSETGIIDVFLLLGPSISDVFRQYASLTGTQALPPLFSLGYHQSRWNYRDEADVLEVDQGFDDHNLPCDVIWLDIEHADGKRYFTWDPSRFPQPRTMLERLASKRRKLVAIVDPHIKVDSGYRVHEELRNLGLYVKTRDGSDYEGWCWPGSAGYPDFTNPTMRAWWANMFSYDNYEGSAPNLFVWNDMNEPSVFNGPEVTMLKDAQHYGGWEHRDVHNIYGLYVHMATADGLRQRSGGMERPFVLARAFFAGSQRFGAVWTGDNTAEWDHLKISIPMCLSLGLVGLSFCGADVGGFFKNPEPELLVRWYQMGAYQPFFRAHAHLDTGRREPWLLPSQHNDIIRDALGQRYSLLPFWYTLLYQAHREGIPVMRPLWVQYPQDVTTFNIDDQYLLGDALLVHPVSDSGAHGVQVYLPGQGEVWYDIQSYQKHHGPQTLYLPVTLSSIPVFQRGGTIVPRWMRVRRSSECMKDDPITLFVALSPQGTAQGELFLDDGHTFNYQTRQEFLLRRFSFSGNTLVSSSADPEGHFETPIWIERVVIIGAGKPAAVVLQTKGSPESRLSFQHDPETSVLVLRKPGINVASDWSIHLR
Summary of the method: as §1

[4] = target: T4, UniProt Q15067-2
T4 sequence (whole entry): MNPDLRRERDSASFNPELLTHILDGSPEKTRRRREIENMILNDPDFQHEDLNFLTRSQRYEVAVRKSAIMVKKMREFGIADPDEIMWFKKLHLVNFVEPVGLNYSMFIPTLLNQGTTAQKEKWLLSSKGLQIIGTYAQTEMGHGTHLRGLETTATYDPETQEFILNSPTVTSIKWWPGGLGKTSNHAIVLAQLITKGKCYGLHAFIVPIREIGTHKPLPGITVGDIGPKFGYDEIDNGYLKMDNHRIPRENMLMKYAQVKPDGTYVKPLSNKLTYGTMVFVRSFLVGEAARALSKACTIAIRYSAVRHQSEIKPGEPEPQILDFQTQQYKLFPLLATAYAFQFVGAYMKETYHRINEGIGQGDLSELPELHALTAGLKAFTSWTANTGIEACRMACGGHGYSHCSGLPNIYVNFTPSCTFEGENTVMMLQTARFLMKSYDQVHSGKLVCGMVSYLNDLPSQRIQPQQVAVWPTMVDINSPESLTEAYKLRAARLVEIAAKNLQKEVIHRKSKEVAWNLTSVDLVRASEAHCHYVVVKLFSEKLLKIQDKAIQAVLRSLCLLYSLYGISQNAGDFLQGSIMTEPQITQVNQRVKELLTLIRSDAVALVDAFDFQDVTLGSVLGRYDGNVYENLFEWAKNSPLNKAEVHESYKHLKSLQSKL
Summary of the method: as §1

For `Nc1ncnc2c1ncn2[C@@H]1O[C@H](COP(=O)(O)OP(=O)(O)OP(=O)(O)O)[C@@H](O)[C@H]1O` [adenosine triphosphate], the NP40-soluble protein abundance ([1]; concentration: 1mM) was 0.988 ± 0.073, the NP40-soluble protein abundance ([1]; concentration: 2mM) was 1.05 ± 0.052 and the NP40-soluble protein abundance ([1]; concentration: 4mM) was 1.01 ± 0.044. For the same compound, the NP40-soluble protein abundance ([1]; concentration: 6mM) was 1.02 ± 0.092, the NP40-soluble protein abundance ([1]; concentration: 8mM) was 0.968 ± 0.038 and the NP40-soluble protein abundance ([1]; concentration: 10mM) was 1.07 ± 0.071. The NP40-soluble protein abundance ([2]; concentration: 1mM) was 1.07 ± 0.072, the NP40-soluble protein abundance ([2]; concentration: 2mM) was 1.08 ± 0.015 and the NP40-soluble protein abundance ([2]; concentration: 4mM) was 1.09 ± 0.034. The NP40-soluble protein abundance ([2]; concentration: 6mM) was 1.18 ± 0.038, the NP40-soluble protein abundance ([2]; concentration: 8mM) was 1.12 ± 0.037 and the NP40-soluble protein abundance ([2]; concentration: 10mM) was 1.1 ± 0.052. For the same compound, the NP40-soluble protein abundance ([3]; concentration: 1mM) was 0.994 ± 0.083, the NP40-soluble protein abundance ([3]; concentration: 2mM) was 0.948 ± 0.076 and the NP40-soluble protein abundance ([3]; concentration: 4mM) was 0.948 ± 0.069. The NP40-soluble protein abundance ([3]; concentration: 6mM) was 0.913 ± 0.11, the NP40-soluble protein abundance ([3]; concentration: 8mM) was 0.977 ± 0.051 and the NP40-soluble protein abundance ([3]; concentration: 10mM) was 0.944 ± 0.059. The NP40-soluble protein abundance ([4]; concentration: 1mM) was 1 ± 0.081, the NP40-soluble protein abundance ([4]; concentration: 2mM) was 0.988 ± 0.072 and the NP40-soluble protein abundance ([4]; concentration: 4mM) was 0.952 ± 0.046. For the same compound, the NP40-soluble protein abundance ([4]; concentration: 6mM) was 0.909 ± 0.082, the NP40-soluble protein abundance ([4]; concentration: 8mM) was 0.969 ± 0.031 and the NP40-soluble protein abundance ([4]; concentration: 10mM) was 0.975 ± 0.073.
